Measured data: PubChem BioAssay AID1259308 (NCATS, 2017)

- Aim: 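Genes whose loss raises luciferase production in HEK293 cells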 (primary screen)
- Cell system: human HEK293 embryonic kidney cells stably expressing firefly luciferase (HEK-CMV-Luc2-Hygro)
- Reagents: single siRNA against human genes, 0.8 pmol siRNA per well
- Time to read-out: 72 h
- Detection: 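Luciferase light (ONE-Glo) measured on one replicate plate set and viability (CellTiter-Glo) on the other, scaled to a negative control siRNA, with robust z-scores and luciferase per cell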
- Direction: total luciferase, z-score and total luciferase, % of control: higher = more reporter protein produced; luciferase per cell, z-score: higher = more reporter output per viable cell; viable cells, % of control: higher = more viable cells
- Hit rule: 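Active when the median/MAD z-score for overall luciferase is greater than 3; a gene was taken forward for validation with new siRNAs if at least two of its three siRNAs passed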
- Calls: active = raised luciferase; inactive = no rise
Here is an unselected part of about 59,000 reagents tested. About 1,510 of them (2.6%) were called active. 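Calls use total luciferase alone and ignore viability, so some active siRNAs may act by altering cell number.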 A number with no mark means an inactive call. The numbers tell different reagents against one gene apart.

target gene | siRNA no. | total luciferase, z-score | total luciferase, % of control | luciferase per cell, z-score | viable cells, % of control
BTK | 1 | 0.223 | 86.3 | -0.185 | 101
BTK | 2 | -0.354 | 74.8 | -0.414 | 93.3
BTK | 3 | -0.257 | 76.8 | -0.993 | 111
LIMD2 | 1 | 0.398 | 89.8 | 1.63 | 65.4
LIMD2 | 2 | 0.313 | 88.1 | 1.55 | 65.5
LIMD2 | 3 | 3.01 (active) | 142 | 1.84 | 97.5
SLC30A3 | 1 | 1.41 | 110 | 0.672 | 103
SLC30A3 | 2 | -0.0548 | 80.8 | 0.0535 | 89
SLC30A3 | 3 | 0.153 | 84.9 | 0.282 | 88.1
NECTIN2 | 1 | 1.62 | 114 | 1.87 | 78.1
NECTIN2 | 2 | -0.463 | 72.7 | -1.21 | 112
NECTIN2 | 3 | -0.0657 | 80.6 | -0.724 | 109
SMURF2 | 1 | 0.872 | 99.2 | 0.31 | 102
SMURF2 | 2 | -0.684 | 68.3 | -1.2 | 105
SMURF2 | 3 | 0.237 | 86.6 | 0.0488 | 95.5
TIMCCP1 | 1 | 0.321 | 88.3 | 0.68 | 82.5
TIMCCP1 | 2 | 1.71 | 116 | 1.3 | 91.8
TIMCCP1 | 3 | 0.906 | 99.9 | 0.571 | 96
CRNN | 1 | 0.517 | 92.2 | 1.19 | 75.2
CRNN | 2 | 2.95 | 141 | 2.4 | 83.6
CRNN | 3 | 1.42 | 110 | 1.21 | 89.6
ELOVL6 | 1 | 0.51 | 92 | 0.344 | 93.9
ELOVL6 | 2 | -1.72 | 47.7 | -1.96 | 89.3
ELOVL6 | 3 | 0.654 | 94.9 | 0.919 | 83.2
SRPK3 | 1 | 0.0825 | 83.5 | 0.499 | 81.8
SRPK3 | 2 | -1.81 | 45.9 | -2.28 | 93.4
SRPK3 | 3 | -0.122 | 79.5 | 0.352 | 80.9
CDH5 | 1 | -1.56 | 50.9 | -1.73 | 89.7
CDH5 | 2 | 0.279 | 87.4 | 0.239 | 91.8
CDH5 | 3 | -1.34 | 55.2 | -1.47 | 90.9
SMIM10 | 1 | -0.0973 | 80 | 0.81 | 72.2
SMIM10 | 2 | -0.0365 | 81.2 | 0.256 | 84.8
SMIM10 | 3 | 1.69 | 116 | 0.727 | 107
HLA-E | 1 | 0.226 | 86.4 | 0.473 | 85.2
HLA-E | 2 | -0.535 | 71.3 | -0.218 | 84.3
HLA-E | 3 | 2.79 | 137 | 1.77 | 96.4
ERRFI1 | 1 | 3.08 (active) | 143 | 2.15 | 90.9
ERRFI1 | 2 | -0.422 | 73.5 | -0.593 | 96
ERRFI1 | 3 | -1.03 | 61.3 | -1.08 | 91.1
SCGB1D4 | 1 | 1.44 | 110 | 1.48 | 83.5
SCGB1D4 | 2 | 0.134 | 84.6 | -0.178 | 99
SCGB1D4 | 3 | 0.155 | 85 | 0.0824 | 92.9
STX11 | 1 | -1.36 | 54.9 | 1.86 | 37.5
STX11 | 2 | -3.75 | 7.37 | -9.36 | 97
STX11 | 3 | 0.563 | 93.1 | 0.203 | 98.6
YWHAG | 1 | -0.142 | 79.1 | -0.676 | 106
YWHAG | 2 | 0.388 | 89.6 | 0.677 | 83.8
YWHAG | 3 | 1.46 | 111 | 1.18 | 90.7
OBSCN | 1 | -1.02 | 61.7 | -1.48 | 102
OBSCN | 2 | -0.32 | 75.5 | 0.0186 | 84
OBSCN | 3 | -0.101 | 79.9 | 0.512 | 78
OBSCN | 4 | 1.51 | 112 | 1.95 | 74.8
OBSCN | 5 | 0.719 | 96.2 | -0.067 | 109
OBSCN | 6 | -0.743 | 67.1 | -0.555 | 86.8
SIX6 | 1 | -0.345 | 75 | 0.0718 | 82.3
SIX6 | 2 | 1.51 | 112 | 1.33 | 88.2
SIX6 | 3 | -0.438 | 73.2 | -0.209 | 86.4
